# PubChem BioAssay AID504786 | Drosophila RNAi Screening Center | 2011
# Assay: 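Positive regulators of HIF-driven reporter output in Drosophila cells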 (primary screen)
# Cell system: Drosophila S2 cells with a stable HIF luciferase reporter
# Knock-down reagent: long dsRNA against Drosophila genes, about 0.2 µg dsRNA per well of a 384-well plate
# Duration: three days of knock-down, then 20 h of DFO before reading
# Treatment: desferrioxamine (DFO) at 100 µM, an iron chelator that mimics hypoxia, for 20 h
# Detection: 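Firefly luciferase driven by the mouse ldh-a hypoxia-response element, measured after 20 h of 100 µM DFO; z-scores per plate, higher means more signal lost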
# Direction: z-score: higher = stronger loss of HIF reporter signal
# The deposit covers about 21,000 reagents; below is a random part of those with a known target gene and a result. 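Primary screen; positive scores mean lost reporter signal, so the sign may be inverted from the usual convention.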 Names joined by + are all predicted targets of the reagent. Reagent sequences are not shown.
gene,DRSC id,"z-score, replicate 1","z-score, replicate 2","z-score, replicate 3","z-score, replicate 4"
CG8677 + CG31626,DRSC01838,0.1,0,0.5,-0.2
CG34459,DRSC06973,-0.1,-0.4,,
pwn,DRSC06035,-0.2,-0.4,,
parvin,DRSC19468,0.3,0,,
mib1,DRSC10550,-0.3,-0.1,,
CG9459,DRSC16496,-0.3,-0.6,,
bcd,DRSC12624,-0.4,-0.9,,
Atg4a,DRSC00656,-0.1,-0.1,,
Mal-A8,DRSC07234,-0.2,-0.1,,
CG15386 + CG42371,DRSC00400,-0.2,0,,
CG31233,DRSC15888,0.6,-0.1,,
mu2,DRSC08726,-0.2,-0.3,,
spn-F,DRSC14475,2.8,2.3,,
BCL7-like,DRSC17729,-0.1,-0.1,,
CG13031,DRSC09911,-0.3,-0.5,,
CG12420,DRSC14514,-0.3,-0.7,-0.7,-0.2
Mal-A7,DRSC06077,-0.2,-0.2,,
TrpRS-m,DRSC10848,-0.3,-0.3,,
CG5504,DRSC04701,-0.2,-0.5,,
RpS3,DRSC16838,5.3,6.2,,
CG2246,DRSC15433,-0.1,0,,
l(1)G0469,DRSC19412,-0.4,0.1,,
l(1)G0469,DRSC19462,-0.3,-1,,
CG30423,DRSC04013,0,0,,
Tsp68C,DRSC09295,0.3,-0.5,,
CG12511,DRSC02171,-0.1,-0.3,,
CG13564,DRSC04201,-0.3,-0.3,,
CG14565,DRSC11726,-0.4,-0.6,,
CG1271,DRSC08290,-0.2,0.2,,
CG15818,DRSC02505,-0.3,-0.7,,
ddbt,DRSC07869,-0.4,-0.4,,
CG11279,DRSC09837,-0.1,-0.3,,
CG34204,DRSC03897,-0.6,0.2,,
LysD + LysC (retired record),DRSC08674,-0.2,-0.1,,
CG34166,DRSC02482,-0.6,-0.4,,
CG8414,DRSC07168,-0.1,-0.1,,

Individual results from the list:
Under “z-score, replicate 1”, l(1)G0469 [DRSC19462] reads -0.3
CG34204 [DRSC03897], z-score, replicate 2: 0.2
CG14565 [DRSC11726], z-score, replicate 1: -0.4
Under “z-score, replicate 2”, Mal-A7 [DRSC06077] is entered as -0.2
Under “z-score, replicate 1”, CG31233 [DRSC15888] has 0.6
Under “z-score, replicate 1”, CG34459 [DRSC06973] has -0.1

Further results follow:
gene,DRSC id,"z-score, replicate 1","z-score, replicate 2","z-score, replicate 3","z-score, replicate 4"
Tk,DRSC14954,-0.3,0.2,0.7,0.2
CG4658,DRSC02768,-0.3,-0.7,,
Cyp9h1,DRSC07391,-0.2,-0.2,,
Sdc,DRSC04654,-0.2,-0.4,,
TFAM,DRSC15552,0,-0.6,,
CG15210,DRSC19656,-0.2,-0.6,,
Golgin245,DRSC04374,-0.2,-0.9,,
CG5892,DRSC15910,0.2,0,,
Sem1,DRSC02282,1.3,3.1,,
Gr57a,DRSC06401,-0.4,-0.5,,
CG16852,DRSC01876,0,-0.5,,
CG12693,DRSC17882,-0.3,-0.2,,
CG15144,DRSC02445,-0.3,-0.8,,
CG14333 (retired record),DRSC14812,-0.3,0.3,,
CG14333 (retired record),DRSC15769,-0.2,-0.3,,
c12.2,DRSC18751,-0.3,-0.6,,
CG11674,DRSC19414,0,-0.5,,
fng,DRSC11455,-0.2,-1.3,-0.8,-0.2
fng,DRSC11887,-0.3,-0.3,,
tadr,DRSC03177,-0.3,-0.4,,
CG4229,DRSC10407,-0.2,0.3,,
Rrp45,DRSC20198,0.7,3.2,,
CG16965,DRSC02547,-0.3,-0.3,,
Cpsf5,DRSC10374,1.4,1.2,,
CG13245,DRSC02243,-0.3,-0.4,,
CG14377,DRSC14837,-0.3,-0.7,,
RhoGAP102A,DRSC17110,-0.5,-0.5,,
RhoGAP102A,DRSC17145,-0.3,-0.5,,
CG15696,DRSC15118,0.4,0.2,,
Delta,DRSC16648,-1.2,-0.3,,
NELF-B,DRSC17734,-0.6,-1.3,,
spaw,DRSC06824,-0.3,-0.4,,
ksr,DRSC12379,0.1,0.6,,
CG13720,DRSC08329,-0.3,-0.9,,
Arp2,DRSC19332,0.2,-1,,
CG33127,DRSC00011,-0.1,0.1,,
CG10953,DRSC06021,-0.3,-0.4,,
FarO,DRSC18475,-0.4,-0.5,,
Hsp60C,DRSC03036,-0.4,-0.4,,
Klp67A + CG34456,DRSC10420,-0.2,0,,
TyrRS,DRSC10430,-0.2,-0.3,,
SelG,DRSC19808,-0.4,-0.6,,
RpS5a,DRSC20282,7,4.7,,
CG15249,DRSC17978,-0.3,-0.9,,
Ald2,DRSC15799,-0.3,0.2,,
Peritrophin-15b,DRSC02266,-0.4,-0.4,,
DJ-1alpha,DRSC07005,-0.2,-1,,
